Holding throughout (type): cell-based
For assay [1], the system named is WSU-DLCL2 cells. The experiment in a line: Calcein AM proliferation assay, WSU-DLCL2 cells. Conditions: Homo sapiens, WSUDLCL2, […], read-out: WSU-DLCL2 proliferation IC50.
The test system of assay [2] is Pfeiffer cells. The experiment in a line: Calcein AM proliferation assay, Pfeiffer cells. To be noted: Homo sapiens, read-out: Pfeiffer proliferation IC50.
Assay [3] has as its system Karpas 422 cells. The experiment in a line: Calcein AM proliferation assay, Karpas 422 cells. Conditions: Homo sapiens, read-out: Karpas422 proliferation IC50.

Regarding `CCN(c1cc(-c2ccc(CN3CCOCC3)cc2)cc(C(=O)NCc2c(C)cc(C)[nH]c2=O)c1C)C1CCOCC1` [EPZ-6438, reference compound], the values for the IC50 in assay [1], in assay [2] and in assay [3] were 35.3 nM, 8.33 nM and 15.7 nM, respectively.

Values taken from patent publication US12595267B2, “Preparation method for amide compound and application thereof in field of medicine” (Shanghai Synergy Pharmaceutical Sciences Co., Ltd., priority 2019, dated 2026).
